Drawing on the supplement of paper PMC10849652, this text covers log2 fold change for 39 targets.

Sequences of proteins named here, by UniProt entry; tags and fusion partners are left off. A change or cut given only in a name is not applied to a line headed by its entry.
UniProt P11172: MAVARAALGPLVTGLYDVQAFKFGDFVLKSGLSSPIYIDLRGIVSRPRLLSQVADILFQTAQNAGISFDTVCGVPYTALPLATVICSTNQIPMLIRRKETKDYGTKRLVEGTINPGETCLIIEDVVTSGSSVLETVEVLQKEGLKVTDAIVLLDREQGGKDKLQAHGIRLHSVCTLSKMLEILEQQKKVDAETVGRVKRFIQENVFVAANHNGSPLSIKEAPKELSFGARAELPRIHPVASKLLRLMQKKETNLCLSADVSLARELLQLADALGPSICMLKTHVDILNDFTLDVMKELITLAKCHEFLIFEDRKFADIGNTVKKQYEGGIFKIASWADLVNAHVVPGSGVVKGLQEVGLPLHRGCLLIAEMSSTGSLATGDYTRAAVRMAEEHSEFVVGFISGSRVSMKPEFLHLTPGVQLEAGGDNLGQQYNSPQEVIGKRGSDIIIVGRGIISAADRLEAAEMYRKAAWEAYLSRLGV
UniProt Q96RL1: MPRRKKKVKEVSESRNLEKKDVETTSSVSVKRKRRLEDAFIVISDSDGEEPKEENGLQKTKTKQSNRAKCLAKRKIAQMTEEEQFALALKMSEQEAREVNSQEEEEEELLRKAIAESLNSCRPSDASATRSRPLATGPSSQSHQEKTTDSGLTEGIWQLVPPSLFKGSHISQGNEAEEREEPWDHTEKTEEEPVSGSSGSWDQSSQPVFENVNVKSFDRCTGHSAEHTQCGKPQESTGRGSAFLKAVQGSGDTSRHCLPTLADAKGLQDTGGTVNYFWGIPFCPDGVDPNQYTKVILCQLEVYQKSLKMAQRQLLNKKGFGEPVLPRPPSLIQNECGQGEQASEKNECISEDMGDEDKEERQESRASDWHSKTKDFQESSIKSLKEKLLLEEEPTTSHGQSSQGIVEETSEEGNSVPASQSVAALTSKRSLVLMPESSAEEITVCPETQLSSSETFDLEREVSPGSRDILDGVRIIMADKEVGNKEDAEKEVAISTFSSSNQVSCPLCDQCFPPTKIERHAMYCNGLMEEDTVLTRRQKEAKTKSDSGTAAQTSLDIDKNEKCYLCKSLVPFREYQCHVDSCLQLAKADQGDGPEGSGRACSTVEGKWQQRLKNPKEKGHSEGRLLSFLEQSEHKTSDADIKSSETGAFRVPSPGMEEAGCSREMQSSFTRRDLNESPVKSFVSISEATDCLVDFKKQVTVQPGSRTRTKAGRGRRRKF
UniProt Q9NYU1: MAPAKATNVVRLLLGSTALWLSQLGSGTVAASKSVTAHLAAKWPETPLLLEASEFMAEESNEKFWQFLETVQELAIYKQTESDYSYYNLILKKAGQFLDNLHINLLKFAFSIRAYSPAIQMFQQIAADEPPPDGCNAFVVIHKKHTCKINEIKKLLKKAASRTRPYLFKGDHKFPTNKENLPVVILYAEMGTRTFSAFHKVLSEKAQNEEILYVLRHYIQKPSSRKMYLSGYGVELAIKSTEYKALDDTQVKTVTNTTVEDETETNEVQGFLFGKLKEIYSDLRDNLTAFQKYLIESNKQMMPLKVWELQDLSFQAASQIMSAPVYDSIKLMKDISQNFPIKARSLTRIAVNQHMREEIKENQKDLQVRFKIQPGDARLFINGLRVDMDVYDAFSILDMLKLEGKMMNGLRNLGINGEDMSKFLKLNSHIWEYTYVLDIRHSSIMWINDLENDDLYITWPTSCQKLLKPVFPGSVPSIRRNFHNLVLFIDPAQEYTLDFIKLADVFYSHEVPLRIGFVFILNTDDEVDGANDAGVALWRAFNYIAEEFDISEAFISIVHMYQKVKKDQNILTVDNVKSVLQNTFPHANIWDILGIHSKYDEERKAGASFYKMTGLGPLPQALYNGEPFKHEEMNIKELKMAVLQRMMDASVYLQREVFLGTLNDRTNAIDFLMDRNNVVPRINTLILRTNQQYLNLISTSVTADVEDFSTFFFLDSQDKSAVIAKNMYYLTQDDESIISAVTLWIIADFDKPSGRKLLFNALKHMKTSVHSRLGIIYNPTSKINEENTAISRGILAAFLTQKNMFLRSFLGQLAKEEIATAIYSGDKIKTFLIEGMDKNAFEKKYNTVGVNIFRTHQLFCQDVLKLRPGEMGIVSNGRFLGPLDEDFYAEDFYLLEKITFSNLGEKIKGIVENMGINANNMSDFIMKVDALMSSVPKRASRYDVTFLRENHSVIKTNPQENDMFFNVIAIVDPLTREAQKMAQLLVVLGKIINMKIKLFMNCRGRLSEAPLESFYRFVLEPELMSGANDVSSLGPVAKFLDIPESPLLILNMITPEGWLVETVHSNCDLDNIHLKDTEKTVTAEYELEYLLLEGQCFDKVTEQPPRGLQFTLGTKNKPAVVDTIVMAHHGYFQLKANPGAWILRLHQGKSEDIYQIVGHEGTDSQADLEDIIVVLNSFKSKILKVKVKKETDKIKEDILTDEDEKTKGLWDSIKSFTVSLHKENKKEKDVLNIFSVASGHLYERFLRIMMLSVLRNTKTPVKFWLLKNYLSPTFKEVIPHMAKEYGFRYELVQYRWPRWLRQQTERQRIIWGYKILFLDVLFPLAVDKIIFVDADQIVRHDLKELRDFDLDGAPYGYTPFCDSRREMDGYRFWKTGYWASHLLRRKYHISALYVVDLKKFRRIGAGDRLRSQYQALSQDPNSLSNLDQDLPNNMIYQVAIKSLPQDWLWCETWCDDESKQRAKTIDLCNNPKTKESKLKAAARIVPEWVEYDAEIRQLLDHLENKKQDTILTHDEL
UniProt Q9UMX0, whole entry, looked up: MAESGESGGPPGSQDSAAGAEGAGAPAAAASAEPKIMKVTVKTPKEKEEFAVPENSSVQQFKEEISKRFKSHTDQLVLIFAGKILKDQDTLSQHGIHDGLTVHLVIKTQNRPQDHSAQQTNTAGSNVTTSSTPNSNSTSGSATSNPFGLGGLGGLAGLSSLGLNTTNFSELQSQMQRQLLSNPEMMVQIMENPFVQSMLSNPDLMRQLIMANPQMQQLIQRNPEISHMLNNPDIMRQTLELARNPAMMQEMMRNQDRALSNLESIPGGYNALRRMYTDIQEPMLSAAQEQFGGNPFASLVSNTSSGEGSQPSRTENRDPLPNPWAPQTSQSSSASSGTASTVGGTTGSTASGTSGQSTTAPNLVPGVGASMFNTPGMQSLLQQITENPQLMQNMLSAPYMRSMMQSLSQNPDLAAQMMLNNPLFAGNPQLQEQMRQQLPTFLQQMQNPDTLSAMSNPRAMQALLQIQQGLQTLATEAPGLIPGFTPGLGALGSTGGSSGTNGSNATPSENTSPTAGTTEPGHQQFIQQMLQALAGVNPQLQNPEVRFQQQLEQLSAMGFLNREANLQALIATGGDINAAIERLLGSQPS
UniProt O75379: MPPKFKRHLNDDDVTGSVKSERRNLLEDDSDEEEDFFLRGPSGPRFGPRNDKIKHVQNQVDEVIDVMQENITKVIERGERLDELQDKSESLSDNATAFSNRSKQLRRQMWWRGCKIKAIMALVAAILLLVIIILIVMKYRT
UniProt Q9P0L0: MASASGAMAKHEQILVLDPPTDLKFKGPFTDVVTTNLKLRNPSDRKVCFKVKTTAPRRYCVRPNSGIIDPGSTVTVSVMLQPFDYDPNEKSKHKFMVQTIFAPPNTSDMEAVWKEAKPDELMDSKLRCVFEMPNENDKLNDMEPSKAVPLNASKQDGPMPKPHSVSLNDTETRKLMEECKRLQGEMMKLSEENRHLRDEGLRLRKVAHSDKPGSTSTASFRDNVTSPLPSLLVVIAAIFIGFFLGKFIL
UniProt P26640: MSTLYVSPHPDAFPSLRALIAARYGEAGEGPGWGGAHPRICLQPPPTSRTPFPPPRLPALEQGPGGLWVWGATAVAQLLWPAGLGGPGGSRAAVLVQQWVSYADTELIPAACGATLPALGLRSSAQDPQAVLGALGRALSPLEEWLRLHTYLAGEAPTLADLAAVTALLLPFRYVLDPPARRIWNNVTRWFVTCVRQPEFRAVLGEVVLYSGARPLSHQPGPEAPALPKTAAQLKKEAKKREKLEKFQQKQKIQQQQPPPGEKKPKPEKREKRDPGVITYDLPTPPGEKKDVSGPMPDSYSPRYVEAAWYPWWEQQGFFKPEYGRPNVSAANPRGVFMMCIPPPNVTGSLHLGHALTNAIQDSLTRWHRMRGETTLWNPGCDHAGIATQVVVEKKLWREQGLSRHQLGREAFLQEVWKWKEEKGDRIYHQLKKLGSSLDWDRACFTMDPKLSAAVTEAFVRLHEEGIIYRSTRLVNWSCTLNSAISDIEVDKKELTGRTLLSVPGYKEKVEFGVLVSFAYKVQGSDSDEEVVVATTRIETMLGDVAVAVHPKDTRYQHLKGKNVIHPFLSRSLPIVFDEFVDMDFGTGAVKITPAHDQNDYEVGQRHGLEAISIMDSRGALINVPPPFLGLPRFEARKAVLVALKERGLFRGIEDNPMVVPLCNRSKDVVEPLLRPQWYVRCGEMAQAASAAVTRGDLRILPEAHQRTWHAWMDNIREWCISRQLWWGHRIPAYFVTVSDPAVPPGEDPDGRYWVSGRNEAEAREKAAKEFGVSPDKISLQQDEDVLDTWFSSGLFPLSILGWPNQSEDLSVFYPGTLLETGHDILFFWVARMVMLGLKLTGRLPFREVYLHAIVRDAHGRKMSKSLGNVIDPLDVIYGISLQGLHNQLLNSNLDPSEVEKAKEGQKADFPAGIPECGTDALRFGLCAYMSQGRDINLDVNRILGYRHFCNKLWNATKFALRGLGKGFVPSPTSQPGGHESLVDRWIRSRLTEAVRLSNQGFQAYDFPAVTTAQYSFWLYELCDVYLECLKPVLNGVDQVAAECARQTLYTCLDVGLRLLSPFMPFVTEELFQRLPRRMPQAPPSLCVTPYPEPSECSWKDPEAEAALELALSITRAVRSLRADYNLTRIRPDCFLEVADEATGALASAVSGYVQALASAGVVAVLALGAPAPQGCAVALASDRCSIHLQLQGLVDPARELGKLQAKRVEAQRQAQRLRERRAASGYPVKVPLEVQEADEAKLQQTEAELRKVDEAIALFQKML
UniProt Q9BRT2: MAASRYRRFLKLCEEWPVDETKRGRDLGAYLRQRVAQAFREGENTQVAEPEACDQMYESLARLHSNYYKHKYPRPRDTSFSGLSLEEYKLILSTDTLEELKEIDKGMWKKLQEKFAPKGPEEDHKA
UniProt P07919: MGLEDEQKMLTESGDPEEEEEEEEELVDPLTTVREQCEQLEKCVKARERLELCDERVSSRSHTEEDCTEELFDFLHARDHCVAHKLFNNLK
UniProt Q16880: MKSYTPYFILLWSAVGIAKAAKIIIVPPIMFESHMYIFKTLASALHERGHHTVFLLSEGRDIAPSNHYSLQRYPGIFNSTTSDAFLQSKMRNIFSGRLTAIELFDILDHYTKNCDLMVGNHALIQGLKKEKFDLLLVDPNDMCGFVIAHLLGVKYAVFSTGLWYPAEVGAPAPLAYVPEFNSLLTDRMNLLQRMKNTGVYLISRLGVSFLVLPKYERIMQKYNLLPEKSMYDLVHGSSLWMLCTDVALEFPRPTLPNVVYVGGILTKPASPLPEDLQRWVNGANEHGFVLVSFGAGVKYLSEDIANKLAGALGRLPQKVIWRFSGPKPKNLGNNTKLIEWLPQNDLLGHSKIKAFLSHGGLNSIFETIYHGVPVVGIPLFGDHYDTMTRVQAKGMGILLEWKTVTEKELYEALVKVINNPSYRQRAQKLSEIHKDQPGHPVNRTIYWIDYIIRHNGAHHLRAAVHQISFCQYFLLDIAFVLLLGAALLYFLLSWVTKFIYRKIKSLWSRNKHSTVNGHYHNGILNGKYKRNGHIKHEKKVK
UniProt P54578: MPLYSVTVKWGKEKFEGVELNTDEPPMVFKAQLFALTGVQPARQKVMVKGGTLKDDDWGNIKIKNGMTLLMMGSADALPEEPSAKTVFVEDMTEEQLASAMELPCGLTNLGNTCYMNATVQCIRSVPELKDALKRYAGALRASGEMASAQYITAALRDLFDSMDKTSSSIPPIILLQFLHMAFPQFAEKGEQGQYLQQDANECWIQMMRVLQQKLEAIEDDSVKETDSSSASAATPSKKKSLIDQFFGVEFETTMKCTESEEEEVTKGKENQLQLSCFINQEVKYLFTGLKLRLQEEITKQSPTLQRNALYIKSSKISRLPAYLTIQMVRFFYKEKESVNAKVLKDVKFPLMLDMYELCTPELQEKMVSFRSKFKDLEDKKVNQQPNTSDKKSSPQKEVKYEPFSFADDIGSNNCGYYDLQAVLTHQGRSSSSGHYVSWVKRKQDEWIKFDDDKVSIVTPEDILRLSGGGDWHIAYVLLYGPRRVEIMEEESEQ
UniProt P50552: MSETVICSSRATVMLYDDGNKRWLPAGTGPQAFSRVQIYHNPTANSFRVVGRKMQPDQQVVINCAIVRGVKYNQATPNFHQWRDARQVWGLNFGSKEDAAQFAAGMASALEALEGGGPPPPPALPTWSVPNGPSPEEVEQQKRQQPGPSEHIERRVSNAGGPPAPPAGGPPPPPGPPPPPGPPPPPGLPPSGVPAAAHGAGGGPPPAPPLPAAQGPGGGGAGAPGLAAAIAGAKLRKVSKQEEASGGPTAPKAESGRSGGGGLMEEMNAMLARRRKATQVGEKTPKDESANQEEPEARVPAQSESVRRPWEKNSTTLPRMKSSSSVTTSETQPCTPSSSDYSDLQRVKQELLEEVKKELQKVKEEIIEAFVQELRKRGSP

Some of the results follow.

Compound in one experiment: O=C(O)c1ccc2c(c1)nc(Nc1cccc(Cl)c1)c1ccncc12 [silmitasertib]
Put plainly: log2 fold change, soluble protein after heating vs DMSO (PISA); higher = thermal stabilisation; K562 cells, 10 uM, 30 min; active = over 0.2 and 3.5 SD of the protein, either way, in both replicates (recomputed). An outline of the steps: (§1)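 K562 cells (2×10^6 cells/mL) were treated with 10 μM compound for 30 min, and aliquots were heated for 3 min over 48°C-58°C. Pooled aliquots were extracted in PBS with 0.5% NP-40 at 4°C, and the supernatant after 21,000xg for 90 min was measured by TMTpro 16plex LC-MS/MS with channel sums equalised. Reported thermal stability, relative to control samples and from duplicates, is a log2 fold change.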
Take USE1 (UniProt Q9NZ43): the log2 fold change is inactive: 0.016.

For the target URI1 (UniProt O94763), the log2 fold change is inactive: 0.003.

For the target UMPS (UniProt P11172), the log2 fold change is inactive: -0.028.

Consider UTP3 (UniProt Q9NQZ2), for which the log2 fold change was inactive: 0.095.

For the target UIMC1 (UniProt Q96RL1), the log2 fold change is inactive: 0.058.

On to USP8 (UniProt P40818), for which the log2 fold change is inactive: 0.114.

As for UGGT2 (UniProt Q9NYU1), the log2 fold change is inactive: -0.035.

On to UBR4 isoform 2 (UniProt Q5T4S7), for which the log2 fold change is inactive: 0.092.

On to UBE3C (UniProt Q15386), for which the log2 fold change was inactive: 0.027.

On to UQCRFS1 (UniProt P47985), for which the log2 fold change was inactive: -0.051.

As to UBQLN1 (UniProt Q9UMX0), the log2 fold change is inactive: -0.006.

In the case of UTP14A (UniProt Q9BVJ6), the log2 fold change was inactive: 0.128.

As for UBXN7 (UniProt O94888), the log2 fold change is inactive: 0.023.

On to VAMP4 (UniProt O75379), for which the log2 fold change is inactive: 0.058.

For the target VAPA (UniProt Q9P0L0), the log2 fold change is inactive: 0.017.

Turning to VARS (UniProt P26640), the log2 fold change was inactive: 0.021.

Take UCKL1 (UniProt Q9NWZ5): the log2 fold change was inactive: 0.094.

Turning to USP48 isoform 8 (UniProt Q86UV5), the log2 fold change was inactive: 0.094.

Regarding VCL (UniProt P18206), the log2 fold change was inactive: -0.046.

Consider UGGT1 (UniProt Q9NYU2), for which the log2 fold change is inactive: 0.01.

In the case of UQCC2 (UniProt Q9BRT2), the log2 fold change was inactive: -0.02.

UBR7 (UniProt Q8N806): the log2 fold change was inactive: 0.039.

Regarding USP5 (UniProt P45974), the log2 fold change was inactive: 0.015.

UQCRH (UniProt P07919): the log2 fold change is inactive: 0.049.

As for USP10 isoform 2 (UniProt Q14694), the log2 fold change was inactive: 0.027.

As for UROS (UniProt P10746), the log2 fold change is inactive: -0.015.

In the case of UCHL3 (UniProt P15374), the log2 fold change was inactive: -0.021.

Consider UFD1 isoform 1 (UniProt Q92890), for which the log2 fold change was inactive: -0.014.

With VARS2, A0A0G2JL52, the log2 fold change was inactive: -0.005.

Turning to VAPA isoform 2 (UniProt Q9P0L0), the log2 fold change was inactive: 0.008.

Consider UQCRC2 (UniProt P22695), for which the log2 fold change is inactive: -0.028.

USP15 (UniProt Q9Y4E8): the log2 fold change is inactive: 0.035.

Regarding UBE4B isoform 4 (UniProt O95155), the log2 fold change was inactive: 0.042.

Take UGT8 (UniProt Q16880): the log2 fold change is inactive: -0.055.

Turning to UROD (UniProt P06132), the log2 fold change was inactive: -0.044.

Take UEVLD (UniProt Q8IX04): the log2 fold change was inactive: -0.133.

In the case of USP9X (UniProt Q93008), the log2 fold change is inactive: 0.017.

As to USP14 (UniProt P54578), the log2 fold change is inactive: 0.007.

As to VASP (UniProt P50552), the log2 fold change is inactive: 0.119.

Compound in another experiment: O=C1NC(=O)C(c2cnc3ccccn23)=C1c1cn2c3c(cc(F)cc13)CN(C(=O)N1CCCCC1)CC2
The experiment is described as above. An outline of the steps: as §1
With USE1 (UniProt Q9NZ43), the log2 fold change was inactive: 0.001.

As for URI1 (UniProt O94763), the log2 fold change is inactive: 0.117.

Turning to UMPS (UniProt P11172), the log2 fold change was inactive: 0.

Take UTP3 (UniProt Q9NQZ2): the log2 fold change was inactive: 0.103.

UIMC1 (UniProt Q96RL1): the log2 fold change was inactive: 0.277.

USP8 (UniProt P40818): the log2 fold change is inactive: 0.039.

Regarding UGGT2 (UniProt Q9NYU1), the log2 fold change was inactive: 0.095.

With UBR4 isoform 2 (UniProt Q5T4S7), the log2 fold change is inactive: 0.117.

Consider UBE3C (UniProt Q15386), for which the log2 fold change was inactive: -0.125.

UQCRFS1 (UniProt P47985): the log2 fold change was inactive: -0.017.

As for UBQLN1 (UniProt Q9UMX0), the log2 fold change was inactive: 0.048.

As to UTP14A (UniProt Q9BVJ6), the log2 fold change is inactive: 0.082.

UBXN7 (UniProt O94888): the log2 fold change is inactive: -0.042.

Turning to VAMP4 (UniProt O75379), the log2 fold change was inactive: -0.08.

VAPA (UniProt Q9P0L0): the log2 fold change was inactive: -0.028.

As to VARS (UniProt P26640), the log2 fold change is inactive: 0.016.

As to UCKL1 (UniProt Q9NWZ5), the log2 fold change is inactive: -0.025.

For the target USP48 isoform 8 (UniProt Q86UV5), the log2 fold change is inactive: -0.177.

Take VCL (UniProt P18206): the log2 fold change was inactive: -0.006.

As for UGGT1 (UniProt Q9NYU2), the log2 fold change was inactive: -0.025.

In the case of UQCC2 (UniProt Q9BRT2), the log2 fold change is inactive: -0.072.

With UBR7 (UniProt Q8N806), the log2 fold change is inactive: -0.06.

In the case of USP5 (UniProt P45974), the log2 fold change was inactive: -0.041.

In the case of UQCRH (UniProt P07919), the log2 fold change is inactive: -0.032.

For USP10 isoform 2 (UniProt Q14694), the log2 fold change was inactive: 0.03.

As to UROS (UniProt P10746), the log2 fold change was inactive: -0.033.

In the case of UCHL3 (UniProt P15374), the log2 fold change was inactive: -0.074.

With UFD1 isoform 1 (UniProt Q92890), the log2 fold change is inactive: 0.014.

Consider VARS2, A0A0G2JL52, for which the log2 fold change was inactive: -0.048.

Turning to VAPA isoform 2 (UniProt Q9P0L0), the log2 fold change is inactive: -0.114.

As to UQCRC2 (UniProt P22695), the log2 fold change is inactive: -0.001.

With USP15 (UniProt Q9Y4E8), the log2 fold change was inactive: -0.016.

Consider UBE4B isoform 4 (UniProt O95155), for which the log2 fold change is inactive: -0.082.

Consider UGT8 (UniProt Q16880), for which the log2 fold change is inactive: 0.308.

As to UROD (UniProt P06132), the log2 fold change is inactive: 0.009.

In the case of UEVLD (UniProt Q8IX04), the log2 fold change was inactive: 0.016.

As to USP9X (UniProt Q93008), the log2 fold change was inactive: -0.015.

With USP14 (UniProt P54578), the log2 fold change was inactive: -0.029.

Regarding VASP (UniProt P50552), the log2 fold change is inactive: 0.066.
